Experimental data: article PMC12801355, “Peptide Amphiphiles Hitchhike on Endogenous Biomolecules for Enhanced Cancer Imaging and Therapy” (Advanced Materials (Deerfield Beach, Fla.), 2025)
Where a SMILES comes first, the peptide text is derived from it. The star is where a group is joined. Palmitoyl = CCCCCCCCCCCCCCCC(=O)*

System: human plasma proteins
Assay: Mass spectrometry of proteins pulled down with biotinylated SA‐E (SA‐Eb) from human plasma
Format: binding
Protocol: Samples were prepared for mass spectrometry analysis via a pull‐down of a biotinylated version of the SA‐E probe (SA‐Eb, 100 µM) incubated with 50% pooled human plasma at 37 °C for 2 h. Before incubation with the SA‐Eb‐plasma mixture, magnetic streptavidin‐coated beads (Dynabeads MyOne Streptavidin T1, Invitrogen, 65601) were washed with PBS (10 mM, pH 7.4) then blocked with 1% casein equal to the total initial volume of beads for 15 min at room temperature. After blocking, beads were washed again with PBS. Beads were then combined with SA‐Eb‐plasma solution, 25 µL beads to 200 µL mixture. This mixture was then incubated at room temperature for 30 min. After incubation, the remaining solution was removed, and the beads were washed five times with PBS. Bound SA‐Eb was eluted from beads in 30 µL 0.5% Triton X‐100 solution. Magnetic beads were then removed, and the elution was collected for analysis. For plasma control, the incubation with SA‐Eb step was skipped, and 50% plasma in PBS was incubated with beads and washed and eluted using the same method as the SA‐Eb‐plasma solution. The elution solutions were then analyzed by the Proteomics Shared Resource facility at Oregon Health & Science University (See Supporting Information for details).
Sample Preparation. Eluted plasma samples were dried down and stored at -80°C. Samples were thawed at room temperature for 10 min, and 75 µL of SDS protein extraction buffer (5% SDS, 50 mM […]; TEAB) was added to each sample. Samples were shaken in a Thermo mixer for 10 minutes at room temperature and centrifuged at 10,000 g for 5 min. Each sample was transferred from a 0.5 mL tube to a 1.5 mL LoBind centrifuge tube. Samples were reduced by adding 3.4 µL of 0.5 M dithiothreitol and incubated at 95 °C for 10 min. Samples were alkylated by the addition of 6.8 µL of 0.5 M iodoacetamide and were incubated at room temperature for 30 min in the dark. Samples were then acidified by the addition of 8.52 µL of 12% phosphoric acid, and 562 µL of SDS protein binding buffer (90% methanol, 100 mM TEAB, pH 7.51). Samples were transferred 165 µL at a time to S-trap micro columns (Protifi, Farmingdale, NY) and inserted into 1.5 mL of polypropylene tubes. Samples were centrifuged at 4,000 g for 3 min between each addition of the sample. S-trap columns were washed 6 times using 150 µL of 90% methanol containing 100 mM of TEAB followed by centrifugation at 4,000g for 3 min between each wash step. S-trap columns containing the bound sample proteins were transferred to 1.5 mL LoBind centrifuge tubes and 40 µL of 80 ng/µL sequencing grade modified trypsin (Pierce TM Trypsin Protease MS-Grade, XG348166) in 50 mM TEAB was added. S-trap columns were loosely capped, and digestion was performed at 37°C overnight in a humidified chamber.
After completion of digestion, peptides were eluted by sequential addition of 40 µL of TEAB, 40 µL of 0.2% aqueous formic acid, and 40 µl of 50% acetonitrile, 0.2% formic acid, with centrifugation at 4,000 g for 4 min between each addition of elution buffer. The elution fractions were combined and then dried by vacuum centrifugation. Samples were reconstituted by adding 20 µL of 5% formic acid, shaking at 37 °C, and spinning at 15,000 g for 5 min. The supernatant of each sample was transferred to an auto-sample vial.
Data analysis. Mass spectrometry data from all samples were processed using COMET/PAWS against Uniprot_Human_database. Comet (v. 2016.01, rev. 3)^8 was used to search MS2 Spectra against a January 2023 version of canonical FASTA protein database containing human uniprot sequences, and concatenated sequence-reversed entries to estimate error thresholds and 179 common contaminant sequences and their reversed forms. The database processing was performed using python scripts available at https://github.com/pwilmart/fasta_utilities.git and Comet results were processed using the PAW pipeline2 from https://github.com/pwilmart/PAW_pipeline.git.

## CCCCCCCCCCCCCCCC(=O)NCC(=O)NCC(=O)NCC(=O)N[C@@H](Cc1c[nH]cn1)C(=O)N[C@@H](C)C(=O)N[C@@H](C)C(=O)N[C@@H](CC(N)=O)C(=O)NCC(=O)N[C@@H](CCC(=O)O)C(=O)N[C@@H](CCC(=O)O)C(=O)N[C@@H](CS)C(=O)N[C@@H](CCC(=O)O)C(=O)O [SA‐E] (Palmitoyl-GGGHAANGEECE-OH)
Replicate 1
  Percentage, Apolipoproteins: 25.0%
  Percentage, Immunoglobulins: 12.4%
  Percentage, Other: 28.6%
  Total Counts, Apolipoproteins: 891
  Total Counts, Immunoglobulins: 444
  Total Counts, Total: 3569
Replicate 2
  Percentage, Apolipoproteins: 32.0%
  Percentage, Immunoglobulins: 14.8%
  Percentage, Other: 20.7%
  Total Counts, Apolipoproteins: 909
  Total Counts, Immunoglobulins: 421
  Total Counts, Total: 2841
